Test results reported in patent US10053447B2, “Fluorescent compounds” (Pierce Biotechnology, Inc, priority 2010, dated 2018).
Some entries repeat one wording, which the source may state once for all of them.

Experiment: Compatibility with purification methods (gel filtration, dialysis, PDRR)

SMILES	Compatibility with purification methods
COCCN1/C(=C/C=C/C=C/C=C/C2=[N+](CCCCCC(=O)ON3C(=O)CCC3=O)c3ccc(S(=O)(=O)[O-])cc3C2(C)CCCS(=O)(=O)O)C(C)(CCCS(=O)(=O)O)c2cc(S(=O)(=O)O)ccc21 (single isomer, unassigned) [755 Compound 1 (isomer 1)-NHS]	compatible with gel filtration, dialysis, and PDRR
COCCN1/C(=C/C=C/C=C/C=C/C2=[N+](CCCCCC(=O)ON3C(=O)CCC3=O)c3ccc(S(=O)(=O)[O-])cc3C2(C)CCCS(=O)(=O)O)C(C)(CCCS(=O)(=O)O)c2cc(S(=O)(=O)O)ccc21 (single isomer, unassigned) [755 Compound 1 (isomer 2)-NHS]	compatible with gel filtration, dialysis, and PDRR
COCCN1/C(=C/C=C/C2=[N+](CCCCCC(=O)O)c3ccc(S(=O)(=O)[O-])cc3C2(C)CCCS(=O)(=O)O)C(C)(CCCS(=O)(=O)O)c2cc(S(=O)(=O)O)ccc21 (stereo not drawn) [550 Compound 1, 2-{(E)-3-[1-(5-carboxypentyl)-3-methyl-5-sulfo-3-(3-sulfopropyl)-1,3-dihydro-indol-(2E)-ylidene]-propenyl}-1-(2-methoxy-ethyl)-3-methyl-5-sulfo-3-(3-sulfo-propyl)-3H-indolium]	compatible with gel filtration and Pierce Dye Removal Resin (PDRR)
COCC[N+]1=C(/C=C/C=C/C=C2/N(CCCCCC(=O)O)c3ccc(S(=O)(=O)O)cc3C2(C)CCCS(=O)(=O)O)C(C)(CCCS(=O)(=O)O)c2cc(S(=O)(=O)O)ccc21.[Na+].[Na+].[Na+] (stereo not drawn) [650 Compound 1, 2-{(1E,3E)-5-[1-(5-Carboxypentyl)-3-methyl-5-sulfo-3-(3-sulfopropyl)-1,3-dihydro-indol-(2E)-ylidene]-penta-1,3-dienyl}-1-(2-methoxy-ethyl)-3-methyl-5-sulfo-3-(3-sulfopropyl)-3H-indolium tri sodium salt]	compatible with gel filtration and PDRR
COCCOCC[N+]1=C(/C=C/C=C/C=C2/N(CCCCCC(=O)O)c3ccc(S(=O)(=O)O)cc3C2(C)CCCS(=O)(=O)O)C(C)(CCCS(=O)(=O)O)c2cc(S(=O)(=O)O)ccc21.[Na+].[Na+].[Na+] (stereo not drawn) [650 Compound 2, 2-{(1E,3E)-5-[1-(5-carboxypentyl)-3-methyl-5-sulfo-3-(3-sulfopropyl)-1,3-dihydroindol-(2E)-ylidene]-penta-1,3-dienyl}-1-[2-(2-methoxy-ethoxy)-ethyl]-3-methyl-5-sulfo-3-(3-sulfopropyl)-3H-indolium tri sodium salt]	compatible with gel filtration and PDRR
COCCOCCOCC[N+]1=C(/C=C/C=C/C=C2/N(CCCCCC(=O)O)c3ccc(S(=O)(=O)O)cc3C2(C)CCCS(=O)(=O)O)C(C)(CCCS(=O)(=O)O)c2cc(S(=O)(=O)O)ccc21.[Na+].[Na+].[Na+] (stereo not drawn) [650 Compound 3, 2-{(1E,3E)-5-[1-(5-carboxypentyl)-3-methyl-5-sulfo-3-(3-sulfopropyl)-1,3-dihydro-indol-(2E)-ylidene]-penta-1,3-dienyl}-1-{2-[2-(2-methoxy-ethoxy)-ethoxy]-ethyl}-3-methyl-5-sulfo-3-(3-sulfopropyl)-3H-indolium tri sodium salt]	compatible with gel filtration and PDRR
